At least one compound was matched to its structure with a doubt left.
Tests used:
[1] = biological target: T1, EphB3 kinase domain (Homo sapiens, UniProt P54753); experiment: Radiometric protein kinase assay (33PanQinase Activity Assay), EphB3; settings: low nanomolar ranges (biphasic)
T1 sequence (P54753 633-896 limits assumed): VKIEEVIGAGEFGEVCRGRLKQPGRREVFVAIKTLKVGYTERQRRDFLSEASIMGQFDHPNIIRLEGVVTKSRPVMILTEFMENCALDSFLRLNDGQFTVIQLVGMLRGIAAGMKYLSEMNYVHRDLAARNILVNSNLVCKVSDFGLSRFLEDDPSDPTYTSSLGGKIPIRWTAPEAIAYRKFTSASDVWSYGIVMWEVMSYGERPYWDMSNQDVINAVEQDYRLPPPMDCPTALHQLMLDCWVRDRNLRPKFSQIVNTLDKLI

[2] = biological target: T2, EphB1 kinase domain (Homo sapiens, UniProt P54762); experiment: Radiometric protein kinase assay (33PanQinase Activity Assay), EphB1; settings: concentrations up to 100 μM
T2 sequence (P54762 619-882 limits assumed): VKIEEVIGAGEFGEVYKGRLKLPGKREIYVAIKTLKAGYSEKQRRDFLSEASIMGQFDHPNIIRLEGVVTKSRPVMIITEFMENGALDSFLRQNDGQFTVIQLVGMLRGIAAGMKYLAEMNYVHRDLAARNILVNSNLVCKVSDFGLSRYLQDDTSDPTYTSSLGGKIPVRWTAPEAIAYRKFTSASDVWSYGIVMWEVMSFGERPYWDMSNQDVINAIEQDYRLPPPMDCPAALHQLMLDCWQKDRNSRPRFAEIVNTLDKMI

Row | SMILES | influence on EphB3 catalytic activity [1] | inhibition of EphB1 kinase activity [2]
1 | CN(C)c1ccc(O)c2c1C[C@H]1C[C@H]3[C@H](N(C)C)C(O)=C(C(N)=O)C(=O)[C@@]3(O)C(O)=C1C2=O [minocycline] | slightly elevated activity | 
2 | CN(C)[C@@H]1C(O)=C(C(N)=O)C(=O)[C@@]2(O)C(O)=C3C(=O)c4c(O)cccc4[C@@](C)(O)[C@H]3[C@H](O)[C@@H]12 [oxytetracycline] |  | failed to inhibit

Source: patent US20220347194A1, “METHODS AND COMPOSITIONS FOR TREATING PAIN AND OTHER EPH RECEPTOR-ASSOCIATED CONDITIONS” (THE BOARD OF REGENTS OF THE UNIVERSITY OF TEXAS SYSTEM, priority 2019, published 2022)
